For experiment [1], the target named is RrgA on the surface of S. pneumoniae TIGR4 (S. pneumoniae TIGR4). Briefly: pull-down; whole pneumococci (10^7 CFU/ml in PBS) incubated with HBMEC lysate 1 h at 4°C, bacteria pelleted, Western blot of the pellet for the receptor; pneumolysin as loading control. On the technique in general: In western blotting, separated proteins are transferred to a membrane and probed.

Experiment [2] addresses pneumococcal protein glutathione S-transferase (S. pneumoniae). Briefly: co-IP; pneumococcal protein (1-5 µg) held on magnetic Dynabeads by its antibody (anti-RrgA antiserum; anti-GST antibody for the control), then pIgR or PECAM-1 added, 30 min at room temperature, washed with PBS-T, Western blot; both purified.
Experiment [3] addresses 6xHis-RrgA(39-868) (S. pneumoniae TIGR4). Described as above.
In experiment [4] the target is pneumococcal surface protein A (codons 32-774) (S. pneumoniae TIGR4). Described as above.

The values that follow come from publication PMC5461002.

No constants are given. Whether binding was seen depends on the method and setting. In cells and extracts the contact can be indirect. For some of these results: Binding can be weak; no strength is given.

B1: endothelial protein C receptor expressed by HBMECs (receptor, UniProt Q9UNN8 18-238)
chain: SQDASDGLQRLHMLQISYFRDPYHVWYQGNASLGGHLTHVLEGPDTNTTIIQLQPLQEPESWARTQSGLQSYLLQFHGLVRLVHQERTLAFPLTIRCFLGCELPPEGSRAHVFFEVAVNGSSFVSFRPERALWQADTQVTSGVVTFTLQQLNAYNRTRYELREFLEDTCVQYVQKHISAENTKGSQTSRSYTSLVLGVLVGSFIIAGVAVGIFLCTGGRRC
On to B1, for which the binding entry in experiment [1] is “no binding”.

B2: mouse pIgR (R&D Systems, catalog no. CF-2800) (receptor, UniProt O70570 19-645)
chain: KSPIFGPQEVSSIEGDSVSITCYYPDTSVNRHTRKYWCRQGASGMCTTLISSNGYLSKEYSGRANLINFPENNTFVINIEQLTQDDTGSYKCGLGTSNRGLSFDVSLEVSQVPELPSDTHVYTKDIGRNVTIECPFKRENAPSKKSLCKKTNQSCELVIDSTEKVNPSYIGRAKLFMKGTDLTVFYVNISHLTHNDAGLYICQAGEGPSADKKNVDLQVLAPEPELLYKDLRSSVTFECDLGREVANEAKYLCRMNKETCDVIINTLGKRDPDFEGRILITPKDDNGRFSVLITGLRKEDAGHYQCGAHSSGLPQEGWPIQTWQLFVNEESTIPNRRSVVKGVTGGSVAIACPYNPKESSSLKYWCRWEGDGNGHCPVLVGTQAQVQEEYEGRLALFDQPGNGTYTVILNQLTTEDAGFYWCLTNGDSRWRTTIELQVAEATREPNLEVTPQNATAVLGETFTVSCHYPCKFYSQEKYWCKWSNKGCHILPSHDEGARQSSVSCDQSSQLVSMTLNPVSKEDEGWYWCGVKQGQTYGETTAIYIAVEERTRGSSHVNPTDANARAKVALEEEVVDSSISEKENKAIPNPGPFANEREIQNVGDQAQENRASGDAGSADGQSRSSSSK
Consider B2, for which the binding entry in experiment [2] was “no binding”; in experiment [3], “binds”; in experiment [4], “no binding”.
